{
  "sequences": {"note": "The chains behind the UniProt entries cited, without tags or fusion partners. Where a name states a change or a piece, a line headed by the entry shows the natural chain unless it says otherwise.", "UniProt Q07936": "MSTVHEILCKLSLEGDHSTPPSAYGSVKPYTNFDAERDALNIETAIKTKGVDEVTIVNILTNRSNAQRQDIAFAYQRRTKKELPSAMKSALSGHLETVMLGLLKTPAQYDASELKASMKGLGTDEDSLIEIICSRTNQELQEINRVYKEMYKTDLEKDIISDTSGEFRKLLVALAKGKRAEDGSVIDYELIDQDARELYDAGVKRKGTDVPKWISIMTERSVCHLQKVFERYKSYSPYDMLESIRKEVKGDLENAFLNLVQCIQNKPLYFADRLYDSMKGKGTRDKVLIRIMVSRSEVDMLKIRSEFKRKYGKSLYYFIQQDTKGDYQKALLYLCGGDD", "UniProt P24268": "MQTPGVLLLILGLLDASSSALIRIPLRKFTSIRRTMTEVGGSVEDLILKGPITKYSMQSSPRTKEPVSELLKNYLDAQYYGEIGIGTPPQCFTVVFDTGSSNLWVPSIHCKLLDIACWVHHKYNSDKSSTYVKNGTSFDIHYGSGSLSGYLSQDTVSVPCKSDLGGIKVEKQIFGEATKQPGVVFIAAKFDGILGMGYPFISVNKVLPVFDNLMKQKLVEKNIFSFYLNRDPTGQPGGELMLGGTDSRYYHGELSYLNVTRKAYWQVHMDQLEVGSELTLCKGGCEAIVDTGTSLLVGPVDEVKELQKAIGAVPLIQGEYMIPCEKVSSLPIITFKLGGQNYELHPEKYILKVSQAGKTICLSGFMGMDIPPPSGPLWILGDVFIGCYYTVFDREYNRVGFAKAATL", "UniProt P18266": "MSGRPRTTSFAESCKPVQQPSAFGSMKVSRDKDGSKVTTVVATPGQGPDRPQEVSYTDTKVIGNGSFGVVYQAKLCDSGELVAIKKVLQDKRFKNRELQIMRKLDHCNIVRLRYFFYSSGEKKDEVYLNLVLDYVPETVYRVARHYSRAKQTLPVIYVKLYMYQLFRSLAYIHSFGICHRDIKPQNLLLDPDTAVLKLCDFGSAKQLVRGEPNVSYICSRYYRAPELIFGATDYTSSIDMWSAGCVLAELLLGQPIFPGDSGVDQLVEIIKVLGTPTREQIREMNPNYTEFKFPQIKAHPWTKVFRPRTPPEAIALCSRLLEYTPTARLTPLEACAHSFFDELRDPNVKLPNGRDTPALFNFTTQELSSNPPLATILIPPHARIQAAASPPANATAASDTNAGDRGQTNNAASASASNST", "UniProt A0ACM8Q1Z9": "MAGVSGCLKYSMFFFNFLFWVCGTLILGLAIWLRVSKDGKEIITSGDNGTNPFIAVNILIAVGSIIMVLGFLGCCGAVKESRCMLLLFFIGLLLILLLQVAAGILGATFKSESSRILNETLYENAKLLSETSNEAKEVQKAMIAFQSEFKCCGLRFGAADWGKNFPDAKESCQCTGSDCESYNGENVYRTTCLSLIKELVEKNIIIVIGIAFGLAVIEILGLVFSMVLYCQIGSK"},
  "source": "paper PMC5058708",
  "molecules": {"B1": {"name": "claudin7 (protein, UniProt Q9Z1L1 1-211)", "chain": "MANSGLQLLGFSMAMLGWVGLIASTAIPQWQMSSYAGDNIITAQAMYKGLWMECVTQSTGMMSCKMYDSVLALPAATQATRALMIVSLVLGFLAMFVATMGMKCTRCGGDDKVKKARIAMTGGIIFIVAGLAALVACSWIGHQIVTDFYNPLTPMNIKYEFGPAIFIGWAGSALVLLGGALLSCSCPGSESKAAYRAPRSYPKSNSSKEYV", "modifications": "palmitoylated (palmitoylation is prevented by mutating AA184 and AA186)"}},
  "experiment_in_all_cases": "co-IP; lysates of wt, kd and rescue ASML clones; HEPES buffer, 1% Lubrol, 30 min at 4°C; antibody 1 h at 4°C, ProteinG-Sepharose 1 h; SDS-PAGE and Western blot",
  "key": {"[1]": {"target": "T1, claudin7 (rat (endogenous in ASML)) (UniProt Q9Z1L1)", "T1 sequence (chain, palmitoylated (palmitoylation is prevented by mutating AA184 and AA186))": "B1 chain"}, "[2]": {"target": "EpC with a AG point mutation (UniProt O55159)"}, "[3]": {"target": "T2, EpCAM (rat (endogenous in ASML)) (UniProt O55159)", "T2 sequence": "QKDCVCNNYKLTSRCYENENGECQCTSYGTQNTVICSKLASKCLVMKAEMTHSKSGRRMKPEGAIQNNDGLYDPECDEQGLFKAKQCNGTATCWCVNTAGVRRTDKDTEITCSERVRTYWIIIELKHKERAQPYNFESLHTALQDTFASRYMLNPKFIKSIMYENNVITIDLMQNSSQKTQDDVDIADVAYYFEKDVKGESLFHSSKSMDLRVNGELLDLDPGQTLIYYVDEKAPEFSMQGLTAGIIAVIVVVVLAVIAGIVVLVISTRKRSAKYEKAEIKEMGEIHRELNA"}, "[4]": {"target": "AnnII (rat (endogenous in ASML)) (UniProt Q07936)"}, "[5]": {"target": "CathepsinD (rat (endogenous in ASML)) (UniProt P24268)"}, "[6]": {"target": "GSK3β (rat (endogenous in ASML)) (UniProt P18266)"}, "[7]": {"target": "T3, Lamp1 (rat (endogenous in ASML)) (UniProt P14562)", "T3 sequence": "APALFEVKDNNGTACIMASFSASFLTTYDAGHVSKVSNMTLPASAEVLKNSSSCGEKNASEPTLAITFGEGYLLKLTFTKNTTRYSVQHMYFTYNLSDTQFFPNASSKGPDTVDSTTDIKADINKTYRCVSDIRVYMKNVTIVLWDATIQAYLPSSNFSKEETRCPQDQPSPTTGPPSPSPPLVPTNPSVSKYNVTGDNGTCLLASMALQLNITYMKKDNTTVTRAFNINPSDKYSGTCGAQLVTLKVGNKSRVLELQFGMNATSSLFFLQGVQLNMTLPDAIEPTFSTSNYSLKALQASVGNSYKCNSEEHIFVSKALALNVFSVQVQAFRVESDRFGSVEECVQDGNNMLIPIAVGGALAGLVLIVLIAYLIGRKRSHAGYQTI"}, "[8]": {"target": "CathepsinD (rat (endogenous in ASML)) (UniProt P24268)", "remark": "listed apart in the source"}, "[9]": {"target": "EpC with a AG point mutation (UniProt O55159)", "remark": "listed apart in the source"}, "[10]": {"target": "dynamin (rat (endogenous in ASML))"}, "[11]": {"target": "rab5 (rat (endogenous in ASML))"}, "[12]": {"target": "rab7 (rat (endogenous in ASML))"}},
  "note": "Like-named read-outs stand apart in the source and are kept apart here. These are yes or no findings as the source states them, for the method shown. In cells and extracts the contact can be indirect. For some of these results: Binding calls can cover weak binding; strength is not graded here.",
  "data": [
    {"molecule": "Nanog (rat (endogenous in ASML))", "values": [
      {"measurement": "binding", "setting": "[1]", "value": "no binding"}
    ]},
    {"molecule": "tetraspanin Tspan8 (from UniProt A0ACM8Q1Z9)", "values": [
      {"measurement": "binding", "setting": "[2]", "value": "binds"},
      {"measurement": "binding", "setting": "[3]", "value": "binds"}
    ]},
    {"molecule": "cld7 with a mutation in the palmitoylation site (from UniProt Q9Z1L1)", "values": [
      {"measurement": "binding", "setting": "[4]", "value": "binds"},
      {"measurement": "binding", "setting": "[5]", "value": "binds"},
      {"measurement": "binding", "setting": "[6]", "value": "binds"},
      {"measurement": "binding", "setting": "[7]", "value": "binds"}
    ]},
    {"molecule": "Snail (rat (endogenous in ASML))", "values": [
      {"measurement": "binding", "setting": "[1]", "value": "no binding"}
    ]},
    {"molecule": "B1", "values": [
      {"measurement": "binding", "setting": "[8]", "value": "binds"},
      {"measurement": "binding", "setting": "[9]", "value": "no binding"},
      {"measurement": "binding", "setting": "[10]", "value": "binds"},
      {"measurement": "binding", "setting": "[11]", "value": "binds"},
      {"measurement": "binding", "setting": "[12]", "value": "binds"}
    ]}
  ]
}
